# Patent US6822097B1, “Compounds and methods of uses” (Amgen, Inc., priority 2002, dated 2004)
# Some of these results come from one statement about several compounds together.
# Biological target: T1, cyclin E2/CDK2 (Homo sapiens, UniProt P24941)
# T1 construct: made in house; host or cells: Hi5 insect cells (baculovirus, pFastBacDual)
# Assay: CDK2 kinase assay (33P-ATP, Histone-H1)
# Format: biochemical
row,SMILES,IC50
1,"O=C(c1ccc2cc(-c3csc(CS(=O)(=O)c4ccccc4)n3)c(=O)[nH]c2c1)N1CCOCC1 [Example 8739, 7-(4-Morpholinylcarbonyl)-3-(2-((phenylsulfonyl)methyl)-1,3-thiazol-4-yl)-2(1H)-quinolinone]",< 1000 nM
2,"O=c1[nH]c2ccccc2cc1-c1csc(C[S+]([O-])c2ccccc2)n1 (stereo not drawn) [Example 8727, 3-(2-Benzenesulfinylmethyl-thiazol-4-yl)-1H-quinolin-2-one]",< 1000 nM
3,"CCN(CCN(C)C)Cc1ccc2cc(-c3csc(-c4ccncc4)n3)c(=O)[nH]c2c1 [Example 8784, 7-{[(2-Dimethylamino-ethyl)-ethyl-amino]-methyl}-3-(2-pyridin-4-yl-thiazol-4-yl)-1H-quinolin-2-one]",< 1000 nM
4,"O=c1[nH]c2ccccc2cc1-c1csc(-c2ccncc2)n1 [Example 1, 3-[2-(4-Pyridyl)-4-thiazolyl]-2(1H)-quinolinone]",< 1000 nM
5,"O=c1[nH]c2ccccc2cc1-c1csc(CS(=O)(=O)c2ccccn2)n1 [Example 46, 3-{2-[(2-Pyridylsulfonyl)methyl]-1,3-thiazol-4-yl}hydroquinolin-2-one]",< 1000 nM
6,"O=c1[nH]c2cc(CN3CCCCC3)ccc2cc1-c1csc(CS(=O)(=O)c2ccccc2)n1 [Example 8753, 3-(2-((Phenylsulfonyl)methyl)-1,3-thiazol-4-yl)-7-(1-piperidinylmethyl)-2(1H)-quinolinone]",< 1000 nM
7,"C=CCN(c1nc(-c2cc3ccccc3[nH]c2=O)cs1)S(=O)(=O)c1ccccc1 [Example 8729, N-Allyl-N-[4-(2-oxo-1,2-dihydro-quinolin-3-yl)-thiazol-2-yl]-benzenesulfonamide]",< 1000 nM
8,"CN(c1nc(-c2cc3ccc(C(=O)O)cc3[nH]c2=O)cs1)S(=O)(=O)c1ccccc1 [Example 8764, 3-(2-(Methyl(phenylsulfonyl)amino)-1,3-thiazol-4-yl)-2-oxo-1,2-dihydro-7-quinolinecarboxylic Acid]",< 1000 nM
9,"O=c1[nH]c2cc(O)ccc2cc1-c1csc(CS(=O)(=O)c2ccccc2)n1 [Example 8740, 7-hydroxy-3-(2-((phenylsulfonyl)methyl)-1,3-thiazol-4-yl)-2(1H)-quinolinone]",< 1000 nM
10,"Nc1c(-c2csc(-c3ccncc3)n2)c(=O)[nH]c2ccc(Cl)cc12 [Example 21, 3-[2-(4-Pyridyl)-4-thiazolyl]-4-amino-6-chloro-2(1H)-quinolinone]",< 1000 nM
11,"O=c1[nH]c2cc(CN3CCCCC3)ccc2cc1-c1csc(-c2ccncc2)n1 [Example 108, 7-Piperidin-1-ylmethyl-3-(2-pyridin-4-yl-thiazol-4-yl)-1H-quinolin-2-one]",< 1000 nM
12,"O=c1[nH]c2cc(C(F)(F)F)ccc2cc1-c1csc(CS(=O)(=O)c2cccs2)n1 [Example 102, 3-[2-(Thiophene-2-sulfonylmethyl)-thiazol-4-yl]-7-trifluoromethyl-1H-quinolin-2-one]",< 1000 nM
13,C[C@@H]1CN(Cc2ccc3cc(-c4csc(CS(=O)(=O)c5ccccc5)n4)c(=O)[nH]c3c2)C[C@H](C)N1 [Example 8750],< 1000 nM
14,"O=c1[nH]c2cc(OCCN3CCOCC3)ccc2cc1-c1csc(-c2ccncc2)n1 [Example 8775, 7-((2-(4-Morpholinyl)ethyl)oxy)-3-(2-(4-pyridinyl)-1,3-thiazol-4-yl)-2(1H)-quinolinone]",< 1000 nM
15,"O=c1[nH]c2ccc(F)cc2cc1-c1csc(-c2ccncc2)n1 [Example 25, 6-Fluoro-3-(2-(4-pyridyl)(1,3-thiazol-4-yl))hydroquinolin-2-one]",< 1000 nM
16,"O=c1[nH]c2cc(CO)ccc2cc1-c1csc(-c2ccncc2)n1 [Example 107, 7-Hydroxymethyl-3-(2-pyridin-4-yl-thiazol-4-yl)-1H-quinolin-2-one]",< 1000 nM
17,"CCN(CC)C(=O)c1cccc2[nH]c(=O)c(-c3csc(-c4ccncc4)n3)cc12 [Example 11, N,N-Diethyl-1,2-dihydro-2-oxo-3-[2-(4-pyridyl)-4-thiazolyl]-5-quinolinecarboxamide]",< 1000 nM
18,"O=c1[nH]c2cc(C(F)(F)F)ccc2cc1-c1csc(-c2ccncc2)n1 [Example 26, 3-(2-(4-Pyridyl)(1,3-thiazol-4-yl))-7-(trifluoromethyl)hydroquinolin-2-one]",< 1000 nM
19,"O=c1[nH]c2cc(C(F)(F)F)ccc2cc1-c1csc(CS(=O)(=O)c2ccccc2)n1 [Example 105, 3-(2-Benzenesulfonylmethyl-thiazol-4-yl)-7-trifluoromethyl-1H-quinolin-2-one]",< 1000 nM
20,"O=c1[nH]c2cc(CN3CCOCC3)ccc2cc1-c1csc(-c2ccncc2)n1 [Example 8779, 7-Morpholin-4-ylmethyl-3-(2-pyridin-4-yl-thiazol-4-yl)-1H-quinolin-2-one]",< 1000 nM
21,"CC1CN(Cc2ccc3cc(-c4csc(-c5ccncc5)n4)c(=O)[nH]c3c2)CC(C)O1 (stereo not drawn) [Example 8777, 7-(2,6-Dimethyl-morpholin-4-ylmethyl)-3-(2-pyridin-4-yl-thiazol-4-yl)-1H-quinolin-2-one]",< 1000 nM
22,"CN(c1nc(-c2cc3ccccc3[nH]c2=O)cs1)S(=O)(=O)c1cccc(F)c1 [Example 8731, 3-Fluoro-N-methyl-N-[4-(2-oxo-1,2-dihydro-quinolin-3-yl)-thiazol-2-yl]-benzenesulfonamide]",< 1000 nM
23,"CC(C)[C@H]1CN(Cc2ccc3cc(-c4csc(CS(=O)(=O)c5ccccc5)n4)c(=O)[nH]c3c2)CCN1 [Example 8744, 7-(((3S)-3-(1-Methylethyl)-1-piperazinyl)methyl)-3-(2-((phenylsulfonyl)methyl)-1,3-thiazol-4-yl)-2(1H)-quinolinone]",< 1000 nM
24,"CSc1ncc2cc(-c3csc(-c4ccncc4)n3)c(=O)[nH]c2n1 [Example 8790, 2-Methylthio-6-(2-pyridin-4-yl-thiazol-4-yl)-8H-pyrido[2,3-d]pyrimidin-7-one]",< 1000 nM
25,"O=c1[nH]c2cc(CN3CC=CCC3)ccc2cc1-c1csc(CS(=O)(=O)c2ccccc2)n1 [Example 8749, 7-(3,6-Dihydro-1(2H)-pyridinylmethyl)-3-(2-((phenylsulfonyl)methyl)-1,3-thiazol-4-yl)-2(1H)-quinolinone]",< 1000 nM
26,"O=c1[nH]c2ccccc2cc1-c1csc(-c2cccnc2)n1 [Example 2, 3-[2-(3-Pyridyl)-4-thiazolyl]-2(1H)-quinolinone]",< 1000 nM
27,"COc1ccc2cc(-c3csc(CS(=O)(=O)c4ccccc4)n3)c(=O)[nH]c2c1 [Example 8735, 7-(Methoxy)-3-(2-((phenylsulfonyl)methyl)-1,3-thiazol-4-yl)-2(1H)-quinolinone]",< 1000 nM
28,"O=c1[nH]c2ccccc2cc1-c1csc(-c2ccc(-c3csnn3)cc2)n1 [Example 29, 3-[2-(4-(1,2,3-Thiadiazol-4-yl)phenyl)-1,3-thiazol-4-yl]hydroquinolin-2-one]",< 1000 nM
29,"CC(C)[C@H](CO)NCc1ccc2cc(-c3csc(-c4ccncc4)n3)c(=O)[nH]c2c1 (stereo in doubt) [Example 8786, 7-[(1-Hydroxymethyl-2-methyl-propylamino)-methyl]-3-(2-pyridin-4-yl-thiazol-4-yl)-1H-quinolin-2-one]",< 1000 nM
30,"O=c1[nH]c2cc(CO)ccc2cc1-c1csc(CS(=O)(=O)c2ccccc2)n1 [Example 8723, 7-(Hydroxymethyl)-3-(2-((phenylsulfonyl)methyl)-1,3-thiazol-4-yl)-2(1H)-quinolinone]",< 1000 nM
